Results: patent publication EP1396498A1, “A pair of polypeptides with specific and strong interaction” (Max-Planck-Gesellschaft zur Förderung der Wissenschaften …, priority 2002, dated 2004)
These are yes or no findings as the source states them, for the method shown. Some results given as binding are weak or reduced against the parent protein; the word gives no strength. Where a sequence is shown, tags or fusion partners need not be part of it.

T1: δ-COP peptide arginine 242 to glycine 254 immobilized on agarose (S. cerevisiae (yeast))
T1 sequence (peptide, N-terminal cysteine coupled to agarose gel (SulfoLink)): CRAGHSATGGMKLG

T2: GST-L4 (S. cerevisiae (yeast))
T2 sequence: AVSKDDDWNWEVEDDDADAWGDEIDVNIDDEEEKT


Experiments:
[1] = biological target: T1, δ-COP peptide arginine 242 to glycine 254 immobilized on agarose (S. cerevisiae (yeast)); test: peptide-agarose column with crude E. coli extract, glycine elution, SDS-PAGE and Coomassie
[2] = biological target: T2, GST-L4 (S. cerevisiae (yeast)); test: peptide-agarose column with crude E. coli extract holding GST-L4, SDS-PAGE and Coomassie

binding [1] | binding [2] | Binder
binds |  | AVSKDDDWNWEVEDDDADAWGDEIDVNIDDEEEKT (peptide, not shown: a dimerising Fc or GST) [GST-L4]
 | binds | CRAGHSATGGMKLG (N-terminal cysteine coupled to agarose gel (SulfoLink)) [δ-COP peptide arginine 242 to glycine 254 immobilized on agarose]
